From PubChem BioAssay AID2685 (National Center for Advancing Translational Sciences (NCATS), 2010)
The other results are listed elsewhere or left out. Shown are side measurements of this screen, not its main read-out; they come without a call. The list favours compounds with an active or inconclusive main result. Potencies come from curve fits of mixed quality, noted in brackets.

Assay: qHTS Assay for Lipid Storage Modulators in Drosophila S3 Cells;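 on cell number change: cells counted by Cell Tracker Red CMTPX staining in the red channel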
Settings: BODIPY lipid droplet fluorescence, 18-24 h; for cell number change: measured here: cell count max response, cells fed with added oleic acid
Method in brief: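 Drosophila S3 cells loaded with oleic acid (400 uM, as added) and compounds at several concentrations; lipid droplets imaged by 488-nm laser-scanning cytometry, 500–530 nm intensity and object ratio to cell channel. Percent activity normalized to 20 uM Triacsin C.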

[1] = measured here: lipid fluorescence (Fed channel) AC50, cells fed with added oleic acid
[2] = measured here: cell number channel AC50, cells fed with added oleic acid

SMILES | cell number change | AC50 [1] | AC50 [2]
O=C(Nc1cccnc1)c1ccc(-c2cc(Cl)ccc2Cl)o1 | 23% |  | 
Cn1c2c(c(=O)n(C)c1=O)C(NS(=O)(=O)c1ccc(Cl)cc1)(C(F)(F)F)C(=O)N2 (stereo not drawn) | -18.1% | 23.1 µM [falling, partial curve] | 
O=C1CC(c2cc(Br)ccc2F)c2cc3c(cc2N1)CCC3 (stereo not drawn) | -16.5% | 0.164 µM [falling, partial curve, poor fit] | 4.11 µM [falling, single point]
CCc1nc(SCc2cc(Cl)ccc2OC)n[nH]1 |  |  | 3.66 µM [rising, single point]
COc1ccc(C(=O)C/C(=C\C(=O)c2ccc(C)cc2)c2ccccc2)cc1 | -28.8% | 8.2 µM [falling, partial curve] | 
CCOCCSc1nc2c(c(-c3cccs3)c1C#N)CC/C2=C/c1cccs1 | 27.7% | 0.092 µM [falling, full curve] | 
O=C(Nc1ccccc1Cc1ccccc1)c1oc2ccccc2c1COc1ccccc1 | -8.98% |  | 
CC1(c2ccccc2)NC(=O)N(NC(=O)COC(=O)c2cc(Br)ccc2O)C1=O (stereo not drawn) | 22% |  | 
COc1ccc(CCNC(=O)C(=O)N/N=C/c2cccs2)cc1OC | 20.4% |  | 
Cc1cccc(NC(=O)CN(CC2CCCO2)C(=O)c2ccc(S(C)(=O)=O)cc2)c1C (stereo not drawn) |  | 1.3 µM [falling, full curve, poor fit] | 
COc1ccccc1OCCSc1nc(C)c(Cc2ccccc2)c(=O)[nH]1 | -16.9% |  | 
O=C(c1ccc(Cn2cc([N+](=O)[O-])cn2)o1)N1CCCC1 | -16.3% | 29.1 µM [rising, single point] | 
COc1ccc(N(CC(=O)NN=C2CCCC2)S(=O)(=O)c2ccccc2)cc1Cl | 11% | 0.58 µM [rising, partial curve, poor fit] | 
CCOC(=O)C1CSC(CC(=O)Nc2ccc(Cl)cc2)C(=O)N1 (stereo not drawn) | -7.38% | 2.06 µM [falling, partial curve] | 
COc1ccc2[nH]c3c(c2c1)CCN1C(=O)N([C@@H](C)C(=O)NCc2ccc(C)cc2)C(=O)[C@]31C | -19.7% | 0.184 µM [falling, full curve, poor fit] | 
CCn1c(SCC(=O)Nc2ccc(NC(C)=O)cc2)nc2c1c(=O)n(C)c(=O)n2C | 3.85% |  | 
Cc1sc2ncn(Cc3ccccc3F)c(=O)c2c1C | 7.25% | 29.1 µM [rising, single point] | 
COc1ccc2c(c1)Cc1sc(NC(=O)c3cccs3)nc1-2 | -24.1% |  | 
CC(=O)Nc1ccc(NC(=O)C2CC(=O)N(Cc3ccco3)C2)cc1 (stereo not drawn) | -12.5% |  | 
Cc1ccccc1CN(c1ccc(C(=O)N/N=C/c2ccc(OCC(N)=O)cc2)cc1)S(C)(=O)=O | 10.8% | 4.11 µM [falling, single point] | 2.31 µM [falling, partial curve]
Clc1ccc(Sc2cc(Cl)c(-c3ccccc3)nn2)cc1 | -16.3% |  | 2.31 µM [falling, partial curve, poor fit]
Cc1ccccc1NCC(=O)N=Nc1c(O)[nH]c2ccc([N+](=O)[O-])cc12 | -35.8% | 16.4 µM [falling, partial curve] | 14.6 µM [falling, partial curve]

Part of the list above, field by field:
CC1(c2ccccc2)NC(=O)N(NC(=O)COC(=O)c2cc(Br)ccc2O)C1=O (stereo not drawn)
  cell number change: 22%
O=C(c1ccc(Cn2cc([N+](=O)[O-])cn2)o1)N1CCCC1
  cell number change: -16.3%
  AC50 [1]: 29.1 µM [rising, single point]
COc1ccc(N(CC(=O)NN=C2CCCC2)S(=O)(=O)c2ccccc2)cc1Cl
  cell number change: 11%
  AC50 [1]: 0.58 µM [rising, partial curve, poor fit]
Cc1ccccc1CN(c1ccc(C(=O)N/N=C/c2ccc(OCC(N)=O)cc2)cc1)S(C)(=O)=O
  cell number change: 10.8%
  AC50 [1]: 4.11 µM [falling, single point]
  AC50 [2]: 2.31 µM [falling, partial curve]

Additional records.

SMILES | cell number change | AC50 [1] | AC50 [2]
Cc1cc(Br)cc(C)c1NC(=S)NC(=O)CC(C)C | 9.59% | 29.1 µM [rising, single point] | 
CCCC(=O)C1C(=O)CC(CC(C)SCC)CC1=O (stereo not drawn) | -1.16% | 6.51 µM [rising, single point] | 
COc1ccc(NS(=O)(=O)c2cccc(C(=O)N3CCCC(C)C3)c2)cc1 (stereo not drawn) | 14.3% | 1.46 µM [falling, partial curve] | 
Cn1nnnc1SCC(=O)NCCCc1ccccc1 | -2.17% |  | 
Cc1ccc(NC(=O)OCCNC(=O)c2ccncc2)cc1 |  |  | 0.58 µM [rising, single point]
CC1CN(CCOc2ccc(Cl)c(Cl)c2)CC(C)O1 (stereo not drawn) | 32.8% |  | 10.3 µM [rising, partial curve]
CCOC(=O)CNC(=O)COc1coc(CN2CCN(c3ccccc3F)CC2)cc1=O | 20.7% |  | 
Cc1c(N(C)C(=O)c2ccccc2F)c(=O)n(-c2ccccc2)n1C | -27.6% | 0.651 µM [falling, full curve] | 2.59 µM [falling, full curve, poor fit]
Cc1[nH]c2ccccc2c1CCNC(=O)c1ccc2nccnc2c1 | -25.9% | 20.6 µM [falling, single point] | 
O=C(O)CSCC(=O)Nc1cccc2ccccc12 | 34.9% | 0.0651 µM [falling, full curve, poor fit] | 
Cc1cccc(C(=O)N[C@H](C(=O)Nc2nc(C)cs2)C(C)C)c1 | 42.7% |  | 11.6 µM [rising, partial curve]
O=C(CCCN1C(=O)CSc2ncccc21)N1CCN(c2cccc(C(F)(F)F)c2)CC1 | -49.5% | 29.1 µM [falling, single point] | 
COc1ccccc1CNC(=O)CN(C)CC(=O)Nc1cccc(F)c1 | -3.27% | 0.116 µM [rising, full curve, poor fit] | 
CCOC(=O)CNC(=O)C1c2ccccc2C(=O)N(c2ccc(OC)cc2)C1c1ccc(OC)cc1 (stereo not drawn) | 77.5% |  | 29.1 µM [rising, single point]
Nn1c(SCC(=O)Nc2ccccc2C(F)(F)F)nncc1=O | 28.3% |  | 
COCCCNCCOc1cc(C(C)C)ccc1C | -10.1% | 6.51 µM [falling, full curve] | 
Cc1c(C(c2ccc(F)cc2)c2c(C)n(C)n(-c3ccccc3)c2=O)c(=O)n(-c2ccccc2)n1C | -11% |  | 
O=C(CSc1ccc(-c2ccccc2)nn1)c1cccs1 | 110% | 0.0164 µM [rising, full curve, poor fit] | 29.1 µM [rising, single point]
Cc1ccc(-n2c(C)cc3c2CC(C)(C)CC3=O)cc1C | 18% |  | 0.0731 µM [rising, full curve]
Cc1ccc(Cl)cc1NC(=O)C(Cc1ccccc1)N1C(=O)C2C3CCC(C3)C2C1=O (stereo not drawn) | 4.69% | 0.291 µM [rising, single point] | 
CCc1ccc(NC(=O)C(C)OC(=O)CC(NC(C)=O)c2ccccc2)cc1 (stereo not drawn) | 3.97% | 5.17 µM [rising, partial curve, poor fit] | 
O=C(COc1cccc2ccccc12)Nc1nc2ccccc2[nH]1 | 32.3% | 0.58 µM [rising, full curve] | 0.411 µM [rising, full curve, poor fit]

SMILES | cell number change | AC50 [1] | AC50 [2]
COC(=O)c1cc(S(=O)(=O)NCCc2ccc(Cl)cc2)c[nH]1 | -3.29% | 6.51 µM [rising, partial curve, poor fit] | 
CC1C(c2ccccc2)N(C)C(c2ccccc2)CC1(O)c1ccccc1 (stereo not drawn) | 11.6% | 0.461 µM [falling, single point] | 
CCOc1cccc(=O)c2c(C)n(CC3CCCO3)c(C)c12 (stereo not drawn) | -8.31% |  | 
Cc1cc(C)c2cc(CN(CCO)Cc3nnnn3Cc3ccc(F)cc3)c(=O)[nH]c2c1 | 1.65% | 2.91 µM [rising, full curve] | 
COc1ccc(OC)c(CCNC(=O)C2CCN(c3nnc(-n4cccc4)s3)CC2)c1 |  | 1.3 µM [rising, full curve, poor fit] | 
COc1ccc(NS(=O)(=O)c2ccc3oc(SC)nc3c2)cc1 | -22.2% |  | 
CC(=O)c1cccc(NC(=S)NC(=O)c2cccc(C)c2)c1 | 15.2% |  | 
COC(=O)c1[nH]c2ccccc2c1NC(=O)CN1CCN(C(=O)c2ccco2)CC1 | -7.92% | 4.61 µM [rising, single point] | 
O=[N+]([O-])c1cnn(-c2nc(-c3ccccc3)cc(C(F)(F)F)n2)c1 | -35.6% | 6.51 µM [falling, single point] | 7.31 µM [falling, single point]
CN(Cc1nccn1C)C(=O)CC1C(=O)NCCN1Cc1ccc(F)cc1Cl (stereo not drawn) | -5.94% |  | 
COc1cc([C@@H]2CC=C(C(=O)O)[C@H](c3ccccc3F)N2S(=O)(=O)c2ccc(C)cc2)cc(OC)c1OC | 21.6% | 29.1 µM [rising, single point] | 
COC(=O)c1nc(-c2ccc(C)cc2)oc1N(C)C | -14.6% | 0.58 µM [rising, single point] | 
CCOC(=O)C1=C(C)N=c2s/c(=C/c3ccc(OCC(=O)O)cc3)c(=O)n2C1c1ccc(SC)cc1 (stereo not drawn) | 44.2% |  | 29.1 µM [rising, single point]
Cc1ccc(Cn2nnc3c(=O)n(CC(=O)NCc4ccccc4)cnc32)cc1 | 23.8% |  | 
Cc1cccc(C(=O)c2c[nH]cc2-c2ccccc2)c1 | 20.1% | 3.26 µM [rising, partial curve, poor fit] | 
CCOC(=O)[C@H]1[C@H]2COc3ccccc3[C@@H]2N2C(=O)c3cc(C)ccc3NC(=O)[C@@]12C | -15.4% | 0.58 µM [rising, single point] | 
COc1ccc(CNC(=O)COC(=O)c2[nH]c(C)c(C(C)=O)c2C)cc1OC | 1.3% | 2.06 µM [rising, partial curve, poor fit] | 
COc1cccc(OCc2cc(C(=O)N(C)C3CCOCC3)no2)c1 | 6.27% |  | 
Cc1nnc(NC2=NCCCCC2)o1 | -19.8% | 0.731 µM [falling, full curve, poor fit] | 
Cc1ccccc1N=C/C=C1/C=C(c2ccccc2)OC(C)(C)O1 | -4.03% | 25.9 µM [falling, single point] | 
